These are yes or no findings as the source states them, for the method shown. Some binding calls cover weakened binding; strength is not graded here.
B1: 79E3E3 (antibody, V domains shown)
VH: QIQLVQSGPEVKKPGESVKISCKASGYTFTDYAMNWVKQAPGNGLKWMGWINTQTGKPTYADDFKQRFVFSLETSARTTYLQINNLNIEDTATYFCTRLGTGNTKGFAYWGQGTLVTVSS
VL: DILINQSPASLTVSAGERVTMSCKSSQSLLYSENNQDYLAWYQQKPGQFPKLLIYGASNRHTGVPDRFTGSGSGTDFTLTISSVQAEDLADYYCEQTYRYPFTFGSGTKLEIK
B2: 9-G05 (antibody, V domains shown)
VH: EVQLQQSGPELVKPGASVKIPCKASGYTFPDYNMDWVKQSHGKSLEWIGYINPDNGGTIYNQKFKGKATLTVDKSSSTAYMELRSLTSEDTAVYYCARLDSSGYGYYAMDYWGQGTSVTVSS
VL: DIVLTQSPASLAVSLGQRATISCRASESVDNYGISFMHWYQQKPGQPPKLLIYRASNLDSEIPARFSGSGSRTDFTLTIDPVETDDVATYYCQQSYKDPRTFGGGTKLEIK
B3: 9-E16 (antibody, V domains shown)
VH: EVQLQQSGPELVKPGASVKISCKASGYTFTDYYMHWVKQKPGQGLEWIGEIYPGSGNPYYNEKFKGKATLTADKSSSSAYMQLSSLTSEDSAVYFCARTSYGRVGTGFAYWGQGTLVTVSA
VL: NFVMTQTPLSLPVSLGDQASISCRSSQSLLHSNGNTYLHWYLQKPGQSPKLLIYKVSNRFSGVPDRFSGSGSGTDFTLKINRVETEDLGIYFCSQSSHVPTFGAGTKLELK
B4: 40G10H11 (antibody, V domains shown)
VH: AVQLVESGGGLVQPGRSLKLSCAASRITFTDYYMAWVRQAPTKGLEWVATISSDGGDTFYRDSVKGRFTISRDNAKSTLYLQMVSLRSEDTATYYCSTDRGAQFGYWGQGTLVTVSS
VL: DIQMTQSPSFLSASVGDRVSINCKASQNVHENLNWYQQKLGEAPKRLIYNTNNLQTGIPSRFSGSGSGADYTLTISSLQPEDFATYFCLQHNAFPYTFGPGTKLELK
B5: 10-F23 (antibody, V domains shown)
VH: QVTLKESGPGILQPSQTLSLTCSFSGFSLSTFAMGVGWIRQPSGKGLEWLAHIWWDDDKYYNPALKSRLTISKDTSKNHVFLKIANVDTADTATYYCARMPLTFYFDYWGQGTTLTVSS
VL: DVLLTQTPLSLPVSLGDQASISCRSSQSIVHSNGHTYLEWYLQKPGQSPKLLIYKVSNRFSGVPDRFSGSGSGTDFTLKISRVEAEDLGVYYCFQGSHVPFTFGGGTKLEIK
B6: 10-L15 (antibody, V domains shown)
VH: QVQLQQSGPELVRPGASVKMSCKASGYTFTSYWMHWVKQRPGQGLEWIGMIDPSNSETWLNQKFKDKATLNVDKSSNTAYMQLSSLTSEDSAVYYCARYDGYYDYWGQGTTLTVSS
VL: NIVLTQSPASLAVSLGQRATISCRASESVDSYGNSFMHWYQQKPGQPPKLLIYLASNVESGVPARFSGSGSRTDFTLTIDPVEADDAATYYCQQNNEDPWTFGGGTKLEIK
B7: 6-A12 (antibody, V domains shown)
VH: QVTLKESGPGILQPSQTLSLTCSFSGFSLRTFAMGVGWIRQPSGKGLEWLAHIWWDDDKYYNPALKSRLTISKDTSKNQVFLKIANVDTADTATYYCARMPLTFYFDYWGQGTTLTVSS
VL: DVLMTQTPLSLPVSLGDQASISCRSSQSIVHSNGNTYLEWYLQKPGQSPKLLIYKVSTRFSGVPDRFSGSGSGTDFTLKISRVEAEDLGVYYCFQGSHVPFTFGGGTKLEIK
B8: 9-B11 (antibody, V domains shown)
VH: QVQLQQPGAELVRPGTSVKLSCKASGYTFTSYWMHWVQQRPGQGLEWIGVIDPSDSYTNYNQKFKGKATLTVDTSSSSAYMQLSSLTSEDSAVYYCARDDVAMDYWGQGTSVTVSS
VL: DIVVTQSPASLAVSLGQRATISCRASESVDSYGNSFIHWYQQKPGQPPKLLIYRASNLKSGIPARFSGSGSRTDFTLTINPVEADDVATYYCQQSNEDPYTFGGGTKLEIK

Chains of the proteins cited; added tags and fusions are not shown. Lines headed by an entry give the natural chain unless they say otherwise; changes in a name come on top. Residues count along the entry.
UniProt Q9UKX5, residues 159-349: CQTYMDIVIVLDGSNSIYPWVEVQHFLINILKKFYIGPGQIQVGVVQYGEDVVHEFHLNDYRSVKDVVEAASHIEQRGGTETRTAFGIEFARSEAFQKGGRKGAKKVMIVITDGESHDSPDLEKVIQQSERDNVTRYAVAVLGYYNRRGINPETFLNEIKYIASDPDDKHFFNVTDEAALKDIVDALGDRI
UniProt P61622: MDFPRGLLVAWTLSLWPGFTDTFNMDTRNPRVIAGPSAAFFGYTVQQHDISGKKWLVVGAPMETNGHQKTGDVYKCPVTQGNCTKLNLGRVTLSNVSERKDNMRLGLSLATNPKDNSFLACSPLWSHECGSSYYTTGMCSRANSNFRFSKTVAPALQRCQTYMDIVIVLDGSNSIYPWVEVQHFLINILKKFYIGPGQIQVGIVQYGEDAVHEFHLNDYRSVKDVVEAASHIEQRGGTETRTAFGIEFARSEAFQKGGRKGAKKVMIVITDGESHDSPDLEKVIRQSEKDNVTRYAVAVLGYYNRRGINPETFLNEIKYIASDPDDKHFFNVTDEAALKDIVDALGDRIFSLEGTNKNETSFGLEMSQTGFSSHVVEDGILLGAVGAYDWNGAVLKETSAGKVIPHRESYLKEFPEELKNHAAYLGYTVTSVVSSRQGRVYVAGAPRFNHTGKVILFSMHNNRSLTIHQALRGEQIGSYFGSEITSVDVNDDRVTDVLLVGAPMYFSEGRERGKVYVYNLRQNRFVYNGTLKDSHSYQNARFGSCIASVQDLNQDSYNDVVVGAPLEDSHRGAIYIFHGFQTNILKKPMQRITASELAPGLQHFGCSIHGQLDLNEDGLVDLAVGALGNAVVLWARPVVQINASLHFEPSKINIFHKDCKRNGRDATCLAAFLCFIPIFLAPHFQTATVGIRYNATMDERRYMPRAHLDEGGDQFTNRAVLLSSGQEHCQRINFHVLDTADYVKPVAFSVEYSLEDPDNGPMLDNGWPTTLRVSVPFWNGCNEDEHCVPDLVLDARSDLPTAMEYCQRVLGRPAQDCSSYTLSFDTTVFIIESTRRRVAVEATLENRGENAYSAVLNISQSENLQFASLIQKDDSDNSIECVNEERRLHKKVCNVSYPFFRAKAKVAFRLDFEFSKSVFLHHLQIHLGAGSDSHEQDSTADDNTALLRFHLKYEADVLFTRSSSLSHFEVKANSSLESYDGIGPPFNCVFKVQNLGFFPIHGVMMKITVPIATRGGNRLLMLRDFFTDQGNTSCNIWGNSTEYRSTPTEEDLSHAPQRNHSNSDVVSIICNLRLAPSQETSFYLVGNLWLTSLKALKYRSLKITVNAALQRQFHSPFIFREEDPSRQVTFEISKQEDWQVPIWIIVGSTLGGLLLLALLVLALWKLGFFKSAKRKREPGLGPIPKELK
UniProt P09055: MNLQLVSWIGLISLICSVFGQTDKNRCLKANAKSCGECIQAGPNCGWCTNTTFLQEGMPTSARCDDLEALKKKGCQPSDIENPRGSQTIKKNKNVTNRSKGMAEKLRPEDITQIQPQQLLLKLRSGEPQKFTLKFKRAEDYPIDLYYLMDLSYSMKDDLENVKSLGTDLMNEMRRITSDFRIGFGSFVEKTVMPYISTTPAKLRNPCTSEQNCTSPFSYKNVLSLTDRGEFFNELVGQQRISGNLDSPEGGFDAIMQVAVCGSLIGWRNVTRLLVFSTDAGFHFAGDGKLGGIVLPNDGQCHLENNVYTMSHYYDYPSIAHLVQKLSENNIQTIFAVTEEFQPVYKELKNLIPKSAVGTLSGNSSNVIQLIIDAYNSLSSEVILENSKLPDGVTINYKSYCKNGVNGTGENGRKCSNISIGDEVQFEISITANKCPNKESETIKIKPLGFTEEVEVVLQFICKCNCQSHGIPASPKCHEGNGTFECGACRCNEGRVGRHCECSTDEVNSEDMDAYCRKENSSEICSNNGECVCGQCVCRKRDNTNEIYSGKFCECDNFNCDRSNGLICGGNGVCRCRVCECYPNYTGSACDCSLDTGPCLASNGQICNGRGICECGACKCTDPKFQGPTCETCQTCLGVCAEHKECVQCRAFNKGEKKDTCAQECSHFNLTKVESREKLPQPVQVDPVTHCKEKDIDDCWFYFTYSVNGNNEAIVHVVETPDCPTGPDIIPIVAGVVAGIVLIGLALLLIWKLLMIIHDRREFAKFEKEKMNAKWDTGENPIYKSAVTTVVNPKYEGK
UniProt P17301: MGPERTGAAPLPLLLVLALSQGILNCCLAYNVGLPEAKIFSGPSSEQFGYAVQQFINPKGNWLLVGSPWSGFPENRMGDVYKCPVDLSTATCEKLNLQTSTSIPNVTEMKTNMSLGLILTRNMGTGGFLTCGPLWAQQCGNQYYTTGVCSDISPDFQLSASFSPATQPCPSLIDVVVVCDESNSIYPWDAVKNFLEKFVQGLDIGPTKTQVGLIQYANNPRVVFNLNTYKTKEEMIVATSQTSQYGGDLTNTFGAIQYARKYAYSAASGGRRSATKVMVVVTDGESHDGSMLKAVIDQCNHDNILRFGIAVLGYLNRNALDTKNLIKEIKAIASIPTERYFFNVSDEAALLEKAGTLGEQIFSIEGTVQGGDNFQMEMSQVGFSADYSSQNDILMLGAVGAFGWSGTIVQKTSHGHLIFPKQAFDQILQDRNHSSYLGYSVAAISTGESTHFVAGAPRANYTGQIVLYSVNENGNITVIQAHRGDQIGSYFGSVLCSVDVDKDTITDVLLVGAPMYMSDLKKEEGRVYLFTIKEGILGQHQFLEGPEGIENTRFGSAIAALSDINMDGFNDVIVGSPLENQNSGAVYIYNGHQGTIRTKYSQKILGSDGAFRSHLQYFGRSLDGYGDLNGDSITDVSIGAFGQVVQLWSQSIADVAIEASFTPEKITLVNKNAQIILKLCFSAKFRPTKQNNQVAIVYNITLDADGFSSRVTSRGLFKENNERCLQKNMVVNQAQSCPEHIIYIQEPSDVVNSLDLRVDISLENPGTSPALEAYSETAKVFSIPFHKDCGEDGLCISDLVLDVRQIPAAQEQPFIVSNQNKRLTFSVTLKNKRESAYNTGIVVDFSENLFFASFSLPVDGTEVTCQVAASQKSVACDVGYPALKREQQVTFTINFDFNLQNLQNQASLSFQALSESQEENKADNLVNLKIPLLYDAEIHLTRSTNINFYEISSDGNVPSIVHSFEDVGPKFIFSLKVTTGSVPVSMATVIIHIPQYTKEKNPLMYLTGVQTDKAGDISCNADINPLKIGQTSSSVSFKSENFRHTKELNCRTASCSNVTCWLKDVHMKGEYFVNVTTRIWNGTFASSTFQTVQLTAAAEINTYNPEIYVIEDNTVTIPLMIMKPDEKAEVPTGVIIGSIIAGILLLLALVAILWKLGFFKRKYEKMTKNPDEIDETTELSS
UniProt P05556: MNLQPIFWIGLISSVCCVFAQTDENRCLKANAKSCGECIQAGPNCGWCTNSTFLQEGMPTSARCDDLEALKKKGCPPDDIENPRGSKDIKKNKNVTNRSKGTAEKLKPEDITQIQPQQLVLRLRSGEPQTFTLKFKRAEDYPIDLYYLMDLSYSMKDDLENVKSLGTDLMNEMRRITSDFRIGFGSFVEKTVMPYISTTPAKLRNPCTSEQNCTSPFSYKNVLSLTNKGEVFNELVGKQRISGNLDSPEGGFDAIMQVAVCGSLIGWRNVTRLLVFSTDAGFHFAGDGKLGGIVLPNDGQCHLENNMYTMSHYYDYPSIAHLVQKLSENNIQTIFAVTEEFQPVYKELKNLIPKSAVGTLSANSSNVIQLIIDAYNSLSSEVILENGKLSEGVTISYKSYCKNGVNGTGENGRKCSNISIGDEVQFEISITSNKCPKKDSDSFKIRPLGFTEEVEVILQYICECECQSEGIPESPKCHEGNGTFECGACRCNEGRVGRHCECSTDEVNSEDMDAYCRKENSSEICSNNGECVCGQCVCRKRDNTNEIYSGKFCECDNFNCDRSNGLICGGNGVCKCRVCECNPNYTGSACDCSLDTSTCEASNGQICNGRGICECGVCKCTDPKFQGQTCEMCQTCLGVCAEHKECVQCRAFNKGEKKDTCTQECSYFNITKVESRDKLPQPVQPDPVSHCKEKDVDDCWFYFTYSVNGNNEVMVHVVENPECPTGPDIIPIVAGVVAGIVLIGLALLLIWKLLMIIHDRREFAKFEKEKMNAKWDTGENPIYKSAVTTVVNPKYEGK
UniProt P56199: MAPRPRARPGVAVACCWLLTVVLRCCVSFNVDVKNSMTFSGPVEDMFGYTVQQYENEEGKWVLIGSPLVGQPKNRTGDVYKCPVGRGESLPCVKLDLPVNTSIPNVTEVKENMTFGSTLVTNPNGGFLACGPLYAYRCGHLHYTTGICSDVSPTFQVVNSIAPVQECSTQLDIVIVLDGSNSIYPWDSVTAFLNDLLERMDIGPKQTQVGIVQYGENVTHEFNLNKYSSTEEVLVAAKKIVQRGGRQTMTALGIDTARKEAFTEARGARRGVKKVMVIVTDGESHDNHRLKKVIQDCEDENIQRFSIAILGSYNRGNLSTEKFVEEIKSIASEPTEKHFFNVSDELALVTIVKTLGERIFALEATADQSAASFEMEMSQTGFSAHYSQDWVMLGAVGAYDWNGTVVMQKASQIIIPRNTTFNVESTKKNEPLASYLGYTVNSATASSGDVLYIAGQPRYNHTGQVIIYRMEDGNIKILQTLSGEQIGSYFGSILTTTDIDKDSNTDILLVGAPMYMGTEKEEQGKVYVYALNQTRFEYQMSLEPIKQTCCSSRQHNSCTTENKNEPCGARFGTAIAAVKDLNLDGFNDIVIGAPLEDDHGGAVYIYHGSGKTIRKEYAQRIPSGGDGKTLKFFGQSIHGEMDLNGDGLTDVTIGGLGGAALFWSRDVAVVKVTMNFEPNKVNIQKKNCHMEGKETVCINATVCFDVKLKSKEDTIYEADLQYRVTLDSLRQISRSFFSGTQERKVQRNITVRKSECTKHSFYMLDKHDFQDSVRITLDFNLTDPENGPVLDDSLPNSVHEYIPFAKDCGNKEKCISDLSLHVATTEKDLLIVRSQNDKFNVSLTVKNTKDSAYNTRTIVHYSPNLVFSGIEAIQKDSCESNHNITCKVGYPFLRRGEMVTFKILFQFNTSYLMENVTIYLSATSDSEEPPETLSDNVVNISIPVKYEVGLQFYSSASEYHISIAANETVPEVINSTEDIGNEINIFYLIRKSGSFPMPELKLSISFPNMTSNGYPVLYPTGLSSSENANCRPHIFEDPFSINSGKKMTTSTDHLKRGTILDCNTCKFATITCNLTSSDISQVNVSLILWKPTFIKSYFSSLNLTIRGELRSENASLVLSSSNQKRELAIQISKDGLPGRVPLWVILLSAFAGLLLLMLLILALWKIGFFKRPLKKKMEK
UniProt O75578: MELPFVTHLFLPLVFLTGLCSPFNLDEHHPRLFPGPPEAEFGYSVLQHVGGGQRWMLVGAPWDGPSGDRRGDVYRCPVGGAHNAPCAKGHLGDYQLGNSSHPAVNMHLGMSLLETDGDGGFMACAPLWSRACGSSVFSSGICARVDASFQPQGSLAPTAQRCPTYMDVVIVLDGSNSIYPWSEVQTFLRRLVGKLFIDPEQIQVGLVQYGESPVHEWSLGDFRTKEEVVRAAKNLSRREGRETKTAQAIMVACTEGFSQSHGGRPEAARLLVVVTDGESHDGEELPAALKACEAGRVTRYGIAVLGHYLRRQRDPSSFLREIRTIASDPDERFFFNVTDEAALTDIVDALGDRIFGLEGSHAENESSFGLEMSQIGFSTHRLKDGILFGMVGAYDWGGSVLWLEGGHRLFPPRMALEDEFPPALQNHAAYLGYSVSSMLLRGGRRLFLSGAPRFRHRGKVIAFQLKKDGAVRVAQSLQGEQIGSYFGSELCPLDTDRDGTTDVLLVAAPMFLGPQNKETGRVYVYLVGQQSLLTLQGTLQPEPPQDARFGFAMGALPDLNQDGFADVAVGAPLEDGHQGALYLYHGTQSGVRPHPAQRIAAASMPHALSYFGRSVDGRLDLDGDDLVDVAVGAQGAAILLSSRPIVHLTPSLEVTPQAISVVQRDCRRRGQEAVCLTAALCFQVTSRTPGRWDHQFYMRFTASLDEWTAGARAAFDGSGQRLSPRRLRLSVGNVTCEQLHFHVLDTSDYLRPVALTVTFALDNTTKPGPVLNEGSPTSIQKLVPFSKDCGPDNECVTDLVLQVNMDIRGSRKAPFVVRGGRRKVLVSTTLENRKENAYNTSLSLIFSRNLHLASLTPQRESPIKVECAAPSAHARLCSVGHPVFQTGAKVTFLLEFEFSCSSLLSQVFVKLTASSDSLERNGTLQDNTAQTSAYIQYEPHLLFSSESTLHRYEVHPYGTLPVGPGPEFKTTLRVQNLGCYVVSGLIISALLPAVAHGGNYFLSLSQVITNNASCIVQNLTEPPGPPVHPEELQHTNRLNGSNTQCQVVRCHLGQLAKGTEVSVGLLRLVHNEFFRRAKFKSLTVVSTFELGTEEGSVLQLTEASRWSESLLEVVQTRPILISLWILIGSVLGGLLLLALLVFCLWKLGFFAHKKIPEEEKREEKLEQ

Assays:
[1] = target: in-house generated I domain of α11β1 (human) (UniProt Q9UKX5); test: ELISA on the human α11β1 I domain
[2] = target: in-house generated I domain of α11β1 (human) (UniProt Q9UKX5); test: binding to isolated I domain
[3] = target: in-house generated I domain of α11β1 (human) (UniProt Q9UKX5); test: SPR, single-cycle injections of 33, 100 and 300 nM over the a11b1 I Domain
[4] = target: in-house generated I domain of α11β1 (human) (UniProt Q9UKX5); test: ELISA on in-house I domain
[5] = target: in-house generated I domain of α11β1 (human) (UniProt Q9UKX5); test: SPR
[6] = target: recombinant mouse α11β1 (mouse) (UniProt P61622+P09055); test: ELISA on recombinant mouse α11β1
human α2β1 (human) = human α2β1 (human) (UniProt P17301+P05556); test: off-target counter-screen
human α1β1 (human) = human α1β1 (human) (UniProt P56199+P05556); test: off-target counter-screen
human α10β1 (human) = human α10β1 (human) (UniProt O75578+P05556); test: off-target counter-screen
[7] = target: recombinant human α11β1 (human) (UniProt Q9UKX5+P05556); test: ELISA on recombinant human α11β1

| Binder | binding [1] | binding [2] | also measured |
| --- | --- | --- | --- |
| B1 | binds | binds | binding [3]: binds; binding [4]: binds; binding [5]: binds |
| B2 | binds | binds | binding [3]: binds; binding [5]: binds |
| B3 | binds | binds |  |
| B4 |  |  | binding [6]: binds; binding (human α2β1 (human)): binds; binding (human α1β1 (human)): binds; binding (human α10β1 (human)): binds; binding [7]: binds |
| B5 |  | binds |  |
| B6 |  | binds |  |
| B7 |  | binds |  |
| B8 |  | binds |  |
